PubChem BioAssay AID1159508 – Drosophila RNAi Screening Center – 2015
Test: 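Overall cell fitness after RNAi as a quality check of the library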. Cells: Drosophila S2R+ cells. Reagents: long dsRNA against Drosophila genes. Timing: 5 days. Measured: 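Total ATP per well measured by luciferase luminescence after 5 days, expressed as z-scores for each replicate and as their average across up to three replicates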. Scale: mean ATP z-score: higher = more total ATP luminescence. Rule for the call: In these data the active calls have mean ATP z-score at about -2 or lower, or at about 2 or higher. Meaning of the calls: active = strong ATP change (up or down); inactive = no strong ATP change.
In all, the deposit lists 812 reagents; this is a random part of them. Of all reagents, 18 (2.2%) are marked active. 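Calls include both increased and decreased ATP; roughly one in four reagents has no third replicate value.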 Unmarked entries are inactive. The numbers tell different reagents against one gene apart. Names joined by + are all predicted targets of the reagent. Further read-outs or replicates are left out here. Not given: the amount of reagent.

For Cpsf160 #1, how do the results read?
mean ATP z-score: 0.787

What is on record for Cpsf160 #2?
mean ATP z-score: 0.178

What did the screen give for su(sable) #1?
mean ATP z-score: 1.12

How did the screen score su(sable) #2?
mean ATP z-score: 2 (active)

For Rhau #1, what was measured?
mean ATP z-score: 0.151

With Rhau #2, how do the results read?
mean ATP z-score: 0.608

With mRRF2 #1, how do the results read?
mean ATP z-score: -0.267

What did the screen give for mRRF2 #2?
mean ATP z-score: -0.59

Part of the list above, set out differently.
target	reagent	mean ATP z-score
su(sable)	1	1.12
su(sable)	2	2 (active)
Rhau	1	0.151
Rhau	2	0.608

Further records follow:
For Cpsf5 #1, what was measured?
mean ATP z-score: 0.582

Which result is listed for Cpsf5 #2?
mean ATP z-score: 1.2

For mIF2 #1, what does the deposit list?
mean ATP z-score: 0.507

What is on record for mIF2 #2?
mean ATP z-score: -0.13

What did the screen give for Snp + CG44249 #1?
mean ATP z-score: 0.409

For Snp + CG44249 #2, how do the results read?
mean ATP z-score: 0.26

What did the screen give for CG3927 #1?
mean ATP z-score: -0.258

Which result is listed for CG3927 #2?
mean ATP z-score: 1.17

For drosha #1, what was measured?
mean ATP z-score: 0.27

With drosha #2, what does the deposit list?
mean ATP z-score: 1.5

For abs #1, what was measured?
mean ATP z-score: 0.453

Which result is listed for abs #2?
mean ATP z-score: 0.151

Which result is listed for gw #1?
mean ATP z-score: 2.19 (active)

For gw #2, what was measured?
mean ATP z-score: 0.603
